This note sets out measurements from patent US20190021380A1 (priority 2014, published 2019).

By UniProt entry, the sequences of proteins in these tests, tags left out. Chains listed by the source or under a name are the forms on record and can include a tag or linker. Residues count along the entry.
UniProt E3UMS2, 1-296: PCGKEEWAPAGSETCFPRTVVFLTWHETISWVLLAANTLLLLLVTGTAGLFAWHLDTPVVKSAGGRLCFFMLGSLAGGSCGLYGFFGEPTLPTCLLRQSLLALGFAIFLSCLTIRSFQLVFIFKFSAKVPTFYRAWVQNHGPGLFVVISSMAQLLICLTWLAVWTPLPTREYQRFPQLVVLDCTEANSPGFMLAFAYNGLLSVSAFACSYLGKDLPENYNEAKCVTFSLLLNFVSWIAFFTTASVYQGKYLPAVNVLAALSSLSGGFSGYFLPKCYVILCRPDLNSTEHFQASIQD
UniProt Q49KI5, with tags, fused parts or gaps E206Q/F654L/N523D partner limits assumed: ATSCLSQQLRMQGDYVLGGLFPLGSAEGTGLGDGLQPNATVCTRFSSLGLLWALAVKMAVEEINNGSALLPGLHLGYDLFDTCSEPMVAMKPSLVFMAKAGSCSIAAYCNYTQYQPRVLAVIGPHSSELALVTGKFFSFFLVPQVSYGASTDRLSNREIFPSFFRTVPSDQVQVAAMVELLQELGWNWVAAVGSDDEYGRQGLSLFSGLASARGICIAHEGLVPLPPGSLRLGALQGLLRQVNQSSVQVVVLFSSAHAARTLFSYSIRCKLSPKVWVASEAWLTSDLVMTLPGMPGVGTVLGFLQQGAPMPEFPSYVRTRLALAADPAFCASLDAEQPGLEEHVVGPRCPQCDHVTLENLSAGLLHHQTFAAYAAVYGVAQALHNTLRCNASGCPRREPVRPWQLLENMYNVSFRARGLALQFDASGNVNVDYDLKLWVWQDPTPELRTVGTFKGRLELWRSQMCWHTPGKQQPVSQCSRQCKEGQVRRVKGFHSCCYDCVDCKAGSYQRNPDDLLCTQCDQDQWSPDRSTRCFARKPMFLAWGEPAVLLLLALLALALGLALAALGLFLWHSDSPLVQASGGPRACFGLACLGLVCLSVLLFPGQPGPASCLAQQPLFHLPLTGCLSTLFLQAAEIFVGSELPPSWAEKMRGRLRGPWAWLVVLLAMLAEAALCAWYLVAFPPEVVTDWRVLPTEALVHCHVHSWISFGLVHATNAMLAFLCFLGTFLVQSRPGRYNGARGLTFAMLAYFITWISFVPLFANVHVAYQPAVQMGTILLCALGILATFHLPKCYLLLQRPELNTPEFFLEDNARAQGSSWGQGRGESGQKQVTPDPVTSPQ

The match of structure and compound is tentative.

This assay has as its target cat T1R1/T1R3 receptor (Felis catus, UniProt E3UMS2). Conditions: tested form: dilithium salt.

For the compound `Nc1ncnc2c1ncn2[C@@H]1O[C@H](COP(O)(O)=S)[C@@H](O)[C@H]1O`, the “Thres” value is 0.015 mM.
